Source: paper PMC6817756
For at least one entry, the source does not settle the construct or the ends of the probe. Results from cells or extracts need not show a direct contact. For part of these data: At least one verdict was read from the data and is not stated in words by the source. For part of these data: Where a protein sequence is shown, tags need not be part of it.

Experiments:
Test in all cases: pull-down MS
MXD3, endogenous = target: T1, MXD3, endogenous (UniProt Q9BW11); details: competed by Omomyc; pulldown: 50 mM Tris-HCl pH 7.5, 5% glycerol, 1.5 mM MgCl2, 150 mM NaCl, 1 mM DTT, IGEPAL, 4 C; protein in an extract; label: 5'-biotin (BtnTg) on strand 1
T1 sequence (looked up, limits assumed): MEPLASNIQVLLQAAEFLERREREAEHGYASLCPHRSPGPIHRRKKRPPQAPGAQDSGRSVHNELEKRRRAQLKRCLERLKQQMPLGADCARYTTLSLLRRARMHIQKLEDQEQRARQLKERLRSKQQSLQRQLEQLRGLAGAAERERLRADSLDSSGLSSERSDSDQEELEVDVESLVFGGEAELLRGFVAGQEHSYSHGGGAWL

KMT2A, endogenous = details: competed by Omomyc, EC50 196 nM, likely indirect; pulldown: 50 mM Tris-HCl pH 7.5, 5% glycerol, 1.5 mM MgCl2, 150 mM NaCl, 1 mM DTT, IGEPAL, 4 C; protein in an extract; label: 5'-biotin (BtnTg) on strand 1
MNT, endogenous = target: T2, MNT, endogenous (UniProt Q99583); details: competed by Omomyc; pulldown: 50 mM Tris-HCl pH 7.5, 5% glycerol, 1.5 mM MgCl2, 150 mM NaCl, 1 mM DTT, IGEPAL, 4 C; protein in an extract; label: 5'-biotin (BtnTg) on strand 1
T2 sequence (looked up, limits assumed): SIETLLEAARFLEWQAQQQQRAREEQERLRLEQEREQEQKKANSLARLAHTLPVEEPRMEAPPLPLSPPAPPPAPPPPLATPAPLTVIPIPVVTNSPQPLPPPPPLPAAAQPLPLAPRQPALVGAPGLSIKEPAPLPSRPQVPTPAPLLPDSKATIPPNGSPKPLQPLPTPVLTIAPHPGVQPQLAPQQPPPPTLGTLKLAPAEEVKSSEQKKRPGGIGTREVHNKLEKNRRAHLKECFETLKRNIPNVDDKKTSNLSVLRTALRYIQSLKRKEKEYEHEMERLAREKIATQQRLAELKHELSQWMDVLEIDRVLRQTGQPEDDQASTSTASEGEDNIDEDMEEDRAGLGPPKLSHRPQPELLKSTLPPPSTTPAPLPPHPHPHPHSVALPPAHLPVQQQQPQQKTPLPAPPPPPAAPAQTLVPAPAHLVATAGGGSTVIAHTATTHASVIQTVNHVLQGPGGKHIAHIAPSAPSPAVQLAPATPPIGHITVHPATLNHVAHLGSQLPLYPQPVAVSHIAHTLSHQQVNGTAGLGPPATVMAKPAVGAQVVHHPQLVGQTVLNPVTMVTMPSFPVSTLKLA

MGA, endogenous = MGA, endogenous (UniProt Q8IWI9); details: competed by Omomyc; pulldown: 50 mM Tris-HCl pH 7.5, 5% glycerol, 1.5 mM MgCl2, 150 mM NaCl, 1 mM DTT, IGEPAL, 4 C; protein in an extract; label: 5'-biotin (BtnTg) on strand 1
MXI1, endogenous = target: T3, MXI1, endogenous (UniProt P50539); details: competed by Omomyc; pulldown: 50 mM Tris-HCl pH 7.5, 5% glycerol, 1.5 mM MgCl2, 150 mM NaCl, 1 mM DTT, IGEPAL, 4 C; protein in an extract; label: 5'-biotin (BtnTg) on strand 1
T3 sequence (looked up, limits assumed): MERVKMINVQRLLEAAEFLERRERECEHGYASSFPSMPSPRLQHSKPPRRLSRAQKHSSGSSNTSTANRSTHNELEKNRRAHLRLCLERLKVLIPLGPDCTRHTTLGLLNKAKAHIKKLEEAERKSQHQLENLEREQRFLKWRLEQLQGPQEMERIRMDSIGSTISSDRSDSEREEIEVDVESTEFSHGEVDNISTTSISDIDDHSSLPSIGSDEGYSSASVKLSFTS

MAX, endogenous = MAX, endogenous (UniProt P61244); details: competed by Omomyc, EC50 297 nM; pulldown: 50 mM Tris-HCl pH 7.5, 5% glycerol, 1.5 mM MgCl2, 150 mM NaCl, 1 mM DTT, IGEPAL, 4 C; protein in an extract; label: 5'-biotin (BtnTg) on strand 1
MYC, endogenous = MYC, endogenous (UniProt P01106); details: competed by Omomyc, EC50 321 nM; pulldown: 50 mM Tris-HCl pH 7.5, 5% glycerol, 1.5 mM MgCl2, 150 mM NaCl, 1 mM DTT, IGEPAL, 4 C; protein in an extract; label: 5'-biotin (BtnTg) on strand 1
WDR5, endogenous = WDR5, endogenous (UniProt P61964); details: competed by Omomyc, EC50 213 nM, likely indirect; pulldown: 50 mM Tris-HCl pH 7.5, 5% glycerol, 1.5 mM MgCl2, 150 mM NaCl, 1 mM DTT, IGEPAL, 4 C; protein in an extract; label: 5'-biotin (BtnTg) on strand 1
MAZ, endogenous = target: T4, MAZ, endogenous (UniProt P56270); details: competed by Omomyc; pulldown: 50 mM Tris-HCl pH 7.5, 5% glycerol, 1.5 mM MgCl2, 150 mM NaCl, 1 mM DTT, IGEPAL, 4 C; protein in an extract; label: 5'-biotin (BtnTg) on strand 1
T4 sequence (looked up, limits assumed): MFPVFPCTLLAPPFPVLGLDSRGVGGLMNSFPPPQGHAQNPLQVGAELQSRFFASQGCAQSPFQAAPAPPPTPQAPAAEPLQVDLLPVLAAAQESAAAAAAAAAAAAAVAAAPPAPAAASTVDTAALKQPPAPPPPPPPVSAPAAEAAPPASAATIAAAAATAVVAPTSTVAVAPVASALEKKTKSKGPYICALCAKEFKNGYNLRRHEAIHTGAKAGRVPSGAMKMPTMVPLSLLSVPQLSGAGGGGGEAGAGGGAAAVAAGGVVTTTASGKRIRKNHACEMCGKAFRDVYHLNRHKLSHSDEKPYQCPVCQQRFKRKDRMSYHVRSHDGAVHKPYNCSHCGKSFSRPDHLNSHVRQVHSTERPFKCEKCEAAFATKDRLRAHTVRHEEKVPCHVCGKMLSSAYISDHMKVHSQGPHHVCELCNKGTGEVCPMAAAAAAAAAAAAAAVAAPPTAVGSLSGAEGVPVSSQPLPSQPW

Measured: binding result

CCCCCACCACGTGGTGCCTGA (double strand) [biotinylated MYC E box]
binds: all assays above
